No constants are given. Whether binding was seen depends on the method and setting. Binding seen in cells or lysates may run through a third protein. Some entries that bind do so weakly or less than the wild type. Sequences can lack the tags named with a protein.
T1: TIMELESS short and cold isoform TIM-SC, HA-tagged (pAcTimSC-HA) (D. melanogaster) (UniProt P49021)
T1 sequence: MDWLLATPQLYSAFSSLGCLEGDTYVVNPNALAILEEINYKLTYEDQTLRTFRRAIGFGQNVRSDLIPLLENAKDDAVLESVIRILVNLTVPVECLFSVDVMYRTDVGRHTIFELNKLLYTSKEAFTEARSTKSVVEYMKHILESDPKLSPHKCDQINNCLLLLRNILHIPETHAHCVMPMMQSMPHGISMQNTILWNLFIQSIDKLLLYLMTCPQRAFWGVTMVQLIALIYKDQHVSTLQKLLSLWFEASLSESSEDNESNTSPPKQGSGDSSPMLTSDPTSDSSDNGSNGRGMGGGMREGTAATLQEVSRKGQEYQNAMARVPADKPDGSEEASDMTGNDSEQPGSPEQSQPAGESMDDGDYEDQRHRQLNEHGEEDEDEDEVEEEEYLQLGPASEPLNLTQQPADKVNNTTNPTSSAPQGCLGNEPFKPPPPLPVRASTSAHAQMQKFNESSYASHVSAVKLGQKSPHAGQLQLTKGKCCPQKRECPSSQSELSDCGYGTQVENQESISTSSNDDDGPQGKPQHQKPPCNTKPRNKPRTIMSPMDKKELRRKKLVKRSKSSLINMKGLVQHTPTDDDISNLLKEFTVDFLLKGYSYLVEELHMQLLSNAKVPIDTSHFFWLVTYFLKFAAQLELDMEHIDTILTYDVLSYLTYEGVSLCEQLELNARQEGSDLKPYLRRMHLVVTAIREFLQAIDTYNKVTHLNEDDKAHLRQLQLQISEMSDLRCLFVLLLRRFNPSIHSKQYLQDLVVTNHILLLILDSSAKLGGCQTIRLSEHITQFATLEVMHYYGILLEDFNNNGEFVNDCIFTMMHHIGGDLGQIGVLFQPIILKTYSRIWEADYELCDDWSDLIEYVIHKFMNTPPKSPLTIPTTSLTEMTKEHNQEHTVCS

T2: TIMELESS canonical isoform TIM-L, HA-tagged (pAcTimL-HA) (D. melanogaster) (UniProt P49021)
T2 sequence: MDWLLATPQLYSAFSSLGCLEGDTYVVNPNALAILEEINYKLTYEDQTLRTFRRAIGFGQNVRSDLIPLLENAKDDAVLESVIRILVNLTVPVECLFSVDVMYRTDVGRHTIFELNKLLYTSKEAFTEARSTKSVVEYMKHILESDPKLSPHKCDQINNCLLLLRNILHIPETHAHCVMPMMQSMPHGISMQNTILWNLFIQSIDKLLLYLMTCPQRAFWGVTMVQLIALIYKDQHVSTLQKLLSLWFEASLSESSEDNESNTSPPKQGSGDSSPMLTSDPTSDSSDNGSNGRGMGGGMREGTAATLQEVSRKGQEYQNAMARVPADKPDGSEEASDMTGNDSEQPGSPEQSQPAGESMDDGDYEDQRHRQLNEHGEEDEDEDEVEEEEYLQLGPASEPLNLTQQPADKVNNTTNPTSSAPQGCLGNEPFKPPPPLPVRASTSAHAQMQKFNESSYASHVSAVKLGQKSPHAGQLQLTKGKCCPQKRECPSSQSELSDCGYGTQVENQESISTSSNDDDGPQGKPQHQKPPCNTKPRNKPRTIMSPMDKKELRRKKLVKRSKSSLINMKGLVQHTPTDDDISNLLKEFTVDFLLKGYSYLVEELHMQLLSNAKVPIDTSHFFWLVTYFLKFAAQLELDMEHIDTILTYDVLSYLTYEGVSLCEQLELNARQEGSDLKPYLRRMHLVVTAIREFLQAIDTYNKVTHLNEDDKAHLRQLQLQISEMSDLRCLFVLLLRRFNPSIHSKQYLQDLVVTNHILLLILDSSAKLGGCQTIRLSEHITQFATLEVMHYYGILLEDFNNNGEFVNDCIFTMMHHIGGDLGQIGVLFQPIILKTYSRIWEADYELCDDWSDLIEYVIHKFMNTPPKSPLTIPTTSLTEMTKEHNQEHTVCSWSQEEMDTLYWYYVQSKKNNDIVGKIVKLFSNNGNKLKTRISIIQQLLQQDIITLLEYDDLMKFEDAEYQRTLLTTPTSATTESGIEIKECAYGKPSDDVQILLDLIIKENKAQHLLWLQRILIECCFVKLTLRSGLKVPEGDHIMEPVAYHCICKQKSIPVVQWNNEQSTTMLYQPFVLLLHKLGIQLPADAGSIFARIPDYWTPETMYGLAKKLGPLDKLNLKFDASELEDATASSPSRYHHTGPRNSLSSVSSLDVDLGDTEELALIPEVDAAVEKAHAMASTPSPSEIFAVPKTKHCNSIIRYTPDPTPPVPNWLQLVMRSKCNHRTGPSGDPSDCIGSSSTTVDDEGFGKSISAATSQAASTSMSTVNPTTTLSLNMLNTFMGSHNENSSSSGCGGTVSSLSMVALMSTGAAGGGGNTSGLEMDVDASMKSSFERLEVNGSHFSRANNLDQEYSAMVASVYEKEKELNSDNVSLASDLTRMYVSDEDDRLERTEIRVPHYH


Key:
[1] = target: T1, TIMELESS short and cold isoform TIM-SC, HA-tagged (pAcTimSC-HA) (D. melanogaster); assay: co-IP; S2 cells co-transfected with pAcPerV5 and pAcTimL-HA or pAcTimSC-HA; lysis buffer 1% NP40, 20 mM Tris pH 7.4, 150 mM NaCl, 10% glycerol; immunoprecipitation with anti-HA and Protein G magnetic beads, 4°C; western blot for PER, GFP and TIM; IgG and no-TIM controls
[2] = target: T2, TIMELESS canonical isoform TIM-L, HA-tagged (pAcTimL-HA) (D. melanogaster); assay: as above
[3] = target: PERIOD (PER), expressed from pAcPerV5 (D. melanogaster) (UniProt P07663); assay: co-IP; S2 cells co-transfected with pAcPerV5 and pAcTimL-HA, pAcTimSC-HA or both; lysis buffer 1% NP40, 20 mM Tris pH 7.4, 150 mM NaCl, 10% glycerol; immunoprecipitation with anti-PER and Protein G magnetic beads, 4°C; western blot for PER, GFP and TIM; IgG and no-PER controls

| binding [1] | binding [2] | binding [3] | Molecule |
| --- | --- | --- | --- |
| binds | binds | – | PERIOD (PER), expressed from pAcPerV5 (from UniProt P07663 1-1218) |
| – | – | binds | TIMELESS short and cold isoform TIM-SC, HA-tagged (pAcTimSC-HA) (protein, UniProt P49021 1-892) MDWLLATPQLYSAFSSLGCLEGDTYVVNPNALAILEEINYKLTYEDQTLRTFRRAIGFGQNVRSDLIPLLENAKDDAVLESVIRILVNLTVPVECLFSVDVMYRTDVGRHTIFELNKLLYTSKEAFTEARSTKSVVEYMKHILESDPKLSPHKCDQINNCLLLLRNILHIPETHAHCVMPMMQSMPHGISMQNTILWNLFIQSIDKLLLYLMTCPQRAFWGVTMVQLIALIYKDQHVSTLQKLLSLWFEASLSESSEDNESNTSPPKQGSGDSSPMLTSDPTSDSSDNGSNGRGMGGGMREGTAATLQEVSRKGQEYQNAMARVPADKPDGSEEASDMTGNDSEQPGSPEQSQPAGESMDDGDYEDQRHRQLNEHGEEDEDEDEVEEEEYLQLGPASEPLNLTQQPADKVNNTTNPTSSAPQGCLGNEPFKPPPPLPVRASTSAHAQMQKFNESSYASHVSAVKLGQKSPHAGQLQLTKGKCCPQKRECPSSQSELSDCGYGTQVENQESISTSSNDDDGPQGKPQHQKPPCNTKPRNKPRTIMSPMDKKELRRKKLVKRSKSSLINMKGLVQHTPTDDDISNLLKEFTVDFLLKGYSYLVEELHMQLLSNAKVPIDTSHFFWLVTYFLKFAAQLELDMEHIDTILTYDVLSYLTYEGVSLCEQLELNARQEGSDLKPYLRRMHLVVTAIREFLQAIDTYNKVTHLNEDDKAHLRQLQLQISEMSDLRCLFVLLLRRFNPSIHSKQYLQDLVVTNHILLLILDSSAKLGGCQTIRLSEHITQFATLEVMHYYGILLEDFNNNGEFVNDCIFTMMHHIGGDLGQIGVLFQPIILKTYSRIWEADYELCDDWSDLIEYVIHKFMNTPPKSPLTIPTTSLTEMTKEHNQEHTVCS |
| – | – | binds | TIMELESS canonical isoform TIM-L, HA-tagged (pAcTimL-HA) (protein, UniProt P49021 1-1398) MDWLLATPQLYSAFSSLGCLEGDTYVVNPNALAILEEINYKLTYEDQTLRTFRRAIGFGQNVRSDLIPLLENAKDDAVLESVIRILVNLTVPVECLFSVDVMYRTDVGRHTIFELNKLLYTSKEAFTEARSTKSVVEYMKHILESDPKLSPHKCDQINNCLLLLRNILHIPETHAHCVMPMMQSMPHGISMQNTILWNLFIQSIDKLLLYLMTCPQRAFWGVTMVQLIALIYKDQHVSTLQKLLSLWFEASLSESSEDNESNTSPPKQGSGDSSPMLTSDPTSDSSDNGSNGRGMGGGMREGTAATLQEVSRKGQEYQNAMARVPADKPDGSEEASDMTGNDSEQPGSPEQSQPAGESMDDGDYEDQRHRQLNEHGEEDEDEDEVEEEEYLQLGPASEPLNLTQQPADKVNNTTNPTSSAPQGCLGNEPFKPPPPLPVRASTSAHAQMQKFNESSYASHVSAVKLGQKSPHAGQLQLTKGKCCPQKRECPSSQSELSDCGYGTQVENQESISTSSNDDDGPQGKPQHQKPPCNTKPRNKPRTIMSPMDKKELRRKKLVKRSKSSLINMKGLVQHTPTDDDISNLLKEFTVDFLLKGYSYLVEELHMQLLSNAKVPIDTSHFFWLVTYFLKFAAQLELDMEHIDTILTYDVLSYLTYEGVSLCEQLELNARQEGSDLKPYLRRMHLVVTAIREFLQAIDTYNKVTHLNEDDKAHLRQLQLQISEMSDLRCLFVLLLRRFNPSIHSKQYLQDLVVTNHILLLILDSSAKLGGCQTIRLSEHITQFATLEVMHYYGILLEDFNNNGEFVNDCIFTMMHHIGGDLGQIGVLFQPIILKTYSRIWEADYELCDDWSDLIEYVIHKFMNTPPKSPLTIPTTSLTEMTKEHNQEHTVCSWSQEEMDTLYWYYVQSKKNNDIVGKIVKLFSNNGNKLKTRISIIQQLLQQDIITLLEYDDLMKFEDAEYQRTLLTTPTSATTESGIEIKECAYGKPSDDVQILLDLIIKENKAQHLLWLQRILIECCFVKLTLRSGLKVPEGDHIMEPVAYHCICKQKSIPVVQWNNEQSTTMLYQPFVLLLHKLGIQLPADAGSIFARIPDYWTPETMYGLAKKLGPLDKLNLKFDASELEDATASSPSRYHHTGPRNSLSSVSSLDVDLGDTEELALIPEVDAAVEKAHAMASTPSPSEIFAVPKTKHCNSIIRYTPDPTPPVPNWLQLVMRSKCNHRTGPSGDPSDCIGSSSTTVDDEGFGKSISAATSQAASTSMSTVNPTTTLSLNMLNTFMGSHNENSSSSGCGGTVSSLSMVALMSTGAAGGGGNTSGLEMDVDASMKSSFERLEVNGSHFSRANNLDQEYSAMVASVYEKEKELNSDNVSLASDLTRMYVSDEDDRLERTEIRVPHYH |
